Values joined by “and” are separate entries in the source; they are usually repeats but may differ in a detail not shown here. Equal entries are not always repeated. Some entries share one result that the patent states for a list of compounds.
What was measured:
histamine H3 receptor = molecular target: T1, histamine H3 receptor (Homo sapiens, UniProt Q9Y5N1); test: Histamine H3 functional antagonist assay (method A), [35S]-GTPγS SPA on membranes; format: biochemical
T1 construct: expressed in transfected cells; host or cells: CHO K1 cells carrying pSwitch, transfected with pGeneH3; mifepristone-induced; clone 3H3; membranes

Sequences of proteins named here, by UniProt entry; tags and fusion partners are left off. A change or cut given only in a name is not applied to a line headed by its entry.
UniProt Q9Y5N1: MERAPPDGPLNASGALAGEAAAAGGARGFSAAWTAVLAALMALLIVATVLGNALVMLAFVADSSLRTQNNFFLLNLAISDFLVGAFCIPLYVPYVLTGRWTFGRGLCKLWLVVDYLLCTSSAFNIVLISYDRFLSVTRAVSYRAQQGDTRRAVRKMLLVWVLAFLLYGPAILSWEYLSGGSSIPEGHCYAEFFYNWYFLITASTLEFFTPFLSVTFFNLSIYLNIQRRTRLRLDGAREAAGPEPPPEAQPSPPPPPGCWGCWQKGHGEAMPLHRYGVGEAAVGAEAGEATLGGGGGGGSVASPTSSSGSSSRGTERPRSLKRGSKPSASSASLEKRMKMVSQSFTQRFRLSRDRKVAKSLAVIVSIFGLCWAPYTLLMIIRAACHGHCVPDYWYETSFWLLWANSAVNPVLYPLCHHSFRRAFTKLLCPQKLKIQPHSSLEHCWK
UniProt P35367, whole entry: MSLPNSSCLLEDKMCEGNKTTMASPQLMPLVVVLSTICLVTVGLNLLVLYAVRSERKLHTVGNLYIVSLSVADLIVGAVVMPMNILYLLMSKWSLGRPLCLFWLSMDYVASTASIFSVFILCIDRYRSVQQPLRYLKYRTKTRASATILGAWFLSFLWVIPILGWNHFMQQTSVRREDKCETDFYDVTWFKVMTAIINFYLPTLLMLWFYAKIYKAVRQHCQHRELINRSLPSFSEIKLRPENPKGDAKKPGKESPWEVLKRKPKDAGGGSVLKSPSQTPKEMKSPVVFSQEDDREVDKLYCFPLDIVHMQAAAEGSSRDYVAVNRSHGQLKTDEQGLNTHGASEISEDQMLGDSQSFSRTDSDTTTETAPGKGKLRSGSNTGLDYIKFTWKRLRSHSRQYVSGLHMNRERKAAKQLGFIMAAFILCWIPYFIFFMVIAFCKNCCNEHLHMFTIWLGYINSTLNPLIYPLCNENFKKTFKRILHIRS

human H1 receptor = molecular target: T2, human H1 receptor (Homo sapiens, UniProt P35367); test: Histamine H1 functional antagonist assay (FLIPR, cell fluorescence); format: cell-based; details: CHO cells expressing human H1 receptor, histamine at EC80
T2 construct: expressed in transfected cells

Structure (SMILES)	antagonism in the histamine H3 functional antagonist assay (method A) (histamine H3 receptor; histamine at EC80)	antagonism in the histamine H1 functional antagonist assay (human H1 receptor) [pKb]	antagonism in the histamine H3 functional antagonist assay (method A) (histamine H3 receptor; histamine at EC80, trifluoroacetate salt)
COc1cccc(S(=O)(=O)N2CCN(c3ccc4c(c3)CCN(C3CCCC3)CC4)CC2)c1 [Example E26, 3-Cyclopentyl-7-(4-{[3-(methyloxy)phenyl]sulfonyl}-1-piperazinyl)-2,3,4,5-tetrahydro-1H-3-benzazepine]	> 6.5 pKb	< 6.3	
O=c1ccc2cc(S(=O)(=O)N3CCN(c4ccc5c(c4)CCN(C4CCCC4)CC5)CC3)ccc2o1 [Example E78, 6-{[4-(3-Cyclopentyl-2,3,4,5-tetrahydro-1H-3-benzazepin-7-yl)-1-piperazinyl]sulfonyl}-2H-chromen-2-one]	> 6.5 pKb	< 6.3	
CC(C)(C)c1ccc(S(=O)(=O)N2CCN(c3ccc4c(c3)CCN(C3CCCC3)CC4)CC2)cc1 [Example E46, 3-Cyclopentyl-7-(4-{[4-(1,1-dimethylethyl)phenyl]sulfonyl}-1-piperazinyl)-2,3,4,5-tetrahydro-1H-3-benzazepine]	> 6.5 pKb	< 6.3	
COc1ccc(Br)c(C(=O)N2CCN(c3ccc4c(c3)CCN(C3CCCC3)CC4)CC2)c1.O=C(O)C(F)(F)F [Example E115, 7-(4-{[2-Bromo-5-(methyloxy)phenyl]carbonyl}-1-piperazinyl)-3-cyclopentyl-2,3,4,5-tetrahydro-1H-3-benzazepine trifluoroacetate salt]		< 6.3	> 9.0 pKb and > 6.5 pKb
O=S(=O)(c1cccc(Cl)c1Cl)N1CCN(c2ccc3c(c2)CCN(C2CCCC2)CC3)CC1 [Example E45, 3-Cyclopentyl-7-{4-[(2,3-dichlorophenyl)sulfonyl]-1-piperazinyl}-2,3,4,5-tetrahydro-1H-3-benzazepine]	> 6.5 pKb	< 6.3	
O=S(=O)(Cc1ccc(Cl)cc1)N1CCN(c2ccc3c(c2)CCN(C2CCCC2)CC3)CC1 [Example E75, 7-(4-{[(4-Chlorophenyl)methyl]sulfonyl}-1-piperazinyl)-3-cyclopentyl-2,3,4,5-tetrahydro-1H-3-benzazepine]	> 6.5 pKb	< 6.3	
O=C(O)C(F)(F)F.O=C(c1cccc(-c2ccco2)c1)N1CCN(c2ccc3c(c2)CCN(C2CCCC2)CC3)CC1 [Example E131, 3-Cyclopentyl-7-(4-{[3-(2-furanyl)phenyl]carbonyl}-1-piperazinyl)-2,3,4,5-tetrahydro-1H-3-benzazepine trifluoroacetate salt]	> 6.5 pKb	< 6.3	
O=C(C1CCCC1)N1CCN(c2ccc3c(c2)CCN(C2CCCC2)CC3)CC1 [Example E93, 3-Cyclopentyl-7-[4-(cyclopentylcarbonyl)-1-piperazinyl]-2,3,4,5-tetrahydro-1H-3-benzazepine]	> 6.5 pKb	< 6.3	
O=S(=O)(c1c(Cl)nc2sccn12)N1CCN(c2ccc3c(c2)CCN(C2CCCC2)CC3)CC1 [Example E84, 7-{4-[(6-Chloroimidazo[2,1-b][1,3]thiazol-5-yl)sulfonyl]-1-piperazinyl}-3-cyclopentyl-2,3,4,5-tetrahydro-1H-3-benzazepine]	> 6.5 pKb	< 6.3	
COc1ccc(Cl)cc1S(=O)(=O)N1CCN(c2ccc3c(c2)CCN(C2CCCC2)CC3)CC1 [Example E81, 7-(4-{[5-Chloro-2-(methyloxy)phenyl]sulfonyl}-1-piperazinyl)-3-cyclopentyl-2,3,4,5-tetrahydro-1H-3-benzazepine]	> 9.0 pKb and > 6.5 pKb	< 6.3	

— patent US20070185089A1, “Benzazepine derivatives for the treatment of neurological and psychiatric disorders” (Glaxo Group Limited, priority 2004, published 2007)
